This passage reports binding results from publication PMC11217289.

Chains of the proteins cited; added tags and fusions are not shown.
UniProt Q9BRP8: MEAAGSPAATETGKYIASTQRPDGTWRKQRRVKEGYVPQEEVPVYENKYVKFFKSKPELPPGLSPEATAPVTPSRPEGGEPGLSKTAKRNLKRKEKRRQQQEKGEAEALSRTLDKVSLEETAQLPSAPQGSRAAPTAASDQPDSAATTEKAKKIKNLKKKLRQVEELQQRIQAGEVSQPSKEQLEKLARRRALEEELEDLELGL

Results are given in words; binding and its absence hold for the method and conditions named. In cells and extracts the contact can be indirect. These calls come from enrichment with a bait or labelling near it, and not all partners need be listed.

This experiment addresses tetracycline-inducible PYM1-Flag (UniProt Q9BRP8). Nature of the experiment: affinity purification with mass spectrometry; PYM1-Flag pull-out from cycloheximide-treated HEK 293/Flp-In/T-Rex cells; MS analysis (Data S1).

B1: endogenous PDCD4 (protein, UniProt Q53EL6 1-469)
chain: MDVENEQILNVNPADPDNLSDSLFSGDEENAGTEEIKNEINGNWISASSINEARINAKAKRRLRKNSSRDSGRGDSVSDSGSDALRSGLTVPTSPKGRLLDRRSRSGKGRGLPKKGGAGGKGVWGTPGQVYDVEEVDVKDPNYDDDQENCVYETVVLPLDERAFEKTLTPIIQEYFEHGDTNEVAEMLRDLNLGEMKSGVPVLAVSLALEGKASHREMTSKLLSDLCGTVMSTTDVEKSFDKLLKDLPELALDTPRAPQLVGQFIARAVGDGILCNTYIDSYKGTVDCVQARAALDKATVLLSMSKGGKRKDSVWGSGGGQQSVNHLVKEIDMLLKEYLLSGDISEAEHCLKELEVPHFHHELVYEAIIMVLESTGESTFKMILDLLKSLWKSSTITVDQMKRGYERIYNEIPDINLDVPHSYSVLERFVEECFQAGIISKQLRDLCPSRGRKRFVSEGDGGRLKPESY
Regarding B1, the binding entry is reported as “binds”.
